Source: ChEMBL document CHEMBL5674883, “The Heterochromatin Landscape in Migrating Cells and the Importance of H3K27me3 for Associated Transcriptome Alterations” (Cells, 2018)
Further values from the same series stand in other lists.

Sequences of proteins named here, by UniProt entry; tags and fusion partners are left off.
UniProt Q61188, whole entry: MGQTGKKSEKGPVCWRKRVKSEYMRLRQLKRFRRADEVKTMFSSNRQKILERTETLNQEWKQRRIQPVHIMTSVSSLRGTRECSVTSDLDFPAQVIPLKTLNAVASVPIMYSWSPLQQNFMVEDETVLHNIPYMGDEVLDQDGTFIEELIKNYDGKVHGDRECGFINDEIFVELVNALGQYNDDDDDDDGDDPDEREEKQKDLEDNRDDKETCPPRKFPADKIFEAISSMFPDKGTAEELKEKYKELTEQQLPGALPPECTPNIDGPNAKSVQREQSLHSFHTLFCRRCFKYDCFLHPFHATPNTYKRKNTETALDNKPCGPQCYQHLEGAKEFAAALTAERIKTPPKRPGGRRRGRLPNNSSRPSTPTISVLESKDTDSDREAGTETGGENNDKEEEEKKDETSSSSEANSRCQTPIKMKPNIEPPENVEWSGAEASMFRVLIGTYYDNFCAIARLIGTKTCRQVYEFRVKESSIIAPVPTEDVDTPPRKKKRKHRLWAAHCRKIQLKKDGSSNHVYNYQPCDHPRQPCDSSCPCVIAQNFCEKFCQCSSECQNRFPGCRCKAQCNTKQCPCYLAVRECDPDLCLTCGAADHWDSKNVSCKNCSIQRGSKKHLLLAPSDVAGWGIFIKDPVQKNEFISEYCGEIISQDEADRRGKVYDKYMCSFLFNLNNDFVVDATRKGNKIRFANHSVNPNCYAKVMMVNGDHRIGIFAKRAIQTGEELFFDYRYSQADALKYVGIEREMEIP

Key:
Assay type in all cases: cell-based
[1] = biological target: Histone-lysine N-methyltransferase EZH2 (Mus musculus) (UniProt Q61188); assay: Inhibition of EZH2 in mouse B16-F1 migrating cells assessed as fold change in H3K27me3-buffered regulated Tubb2b-mRNA expression at 3 uM measured by ChIP-seq analysis relative to control cells
[2] = biological target: Histone-lysine N-methyltransferase EZH2 (Mus musculus) (UniProt Q61188); assay: Inhibition of EZH2 in mouse B16-F1 migrating cells assessed as fold change in H3K27me3-buffered regulated Pif1-mRNA expression at 3 uM measured by ChIP-seq analysis relative to control cells
[3] = biological target: Histone-lysine N-methyltransferase EZH2 (Mus musculus) (UniProt Q61188); assay: Inhibition of EZH2 in mouse B16-F1 migrating cells assessed as fold change in H3K27me3-independent regulated Fam162a-mRNA expression at 3 uM measured by ChIP-seq analysis relative to control cells
[4] = biological target: Histone-lysine N-methyltransferase EZH2 (Mus musculus) (UniProt Q61188); assay: Inhibition of EZH2 in mouse B16-F1 migrating cells assessed as fold change in H3K27me3-independent regulated Lif-mRNA expression at 3 uM measured by ChIP-seq analysis relative to control cells
[5] = biological target: Histone-lysine N-methyltransferase EZH2 (Mus musculus) (UniProt Q61188); assay: Inhibition of EZH2 in mouse B16-F1 migrating cells assessed as fold change in H3K27me3-buffered regulated Plekha7-mRNA expression at 3 uM measured by ChIP-seq analysis relative to control cells
[6] = biological target: Histone-lysine N-methyltransferase EZH2 (Mus musculus) (UniProt Q61188); assay: Inhibition of EZH2 in mouse B16-F1 migrating cells assessed as fold change in H3K27me3-dependent regulated Serpine1-mRNA expression at 3 uM measured by ChIP-seq analysis relative to control cells
[7] = biological target: Histone-lysine N-methyltransferase EZH2 (Mus musculus) (UniProt Q61188); assay: Inhibition of EZH2 in mouse B16-F1 migrating cells assessed as fold change in H3K27me3-buffered regulated Ccar1-mRNA expression at 3 uM measured by ChIP-seq analysis relative to control cells
[8] = biological target: Histone-lysine N-methyltransferase EZH2 (Mus musculus) (UniProt Q61188); assay: Inhibition of EZH2 in mouse B16-F1 migrating cells assessed as fold change in H3K27me3-buffered regulated Gm10076-mRNA expression at 3 uM measured by ChIP-seq analysis relative to control cells
[9] = biological target: Histone-lysine N-methyltransferase EZH2 (Mus musculus) (UniProt Q61188); assay: Inhibition of EZH2 in mouse B16-F1 migrating cells assessed as fold change in H3K27me3-buffered regulated Gm37422-mRNA expression at 3 uM measured by ChIP-seq analysis relative to control cells
[10] = biological target: Histone-lysine N-methyltransferase EZH2 (Mus musculus) (UniProt Q61188); assay: Inhibition of EZH2 in mouse B16-F1 migrating cells assessed as fold change in H3K27me3-buffered regulated Dzip1l-mRNA expression at 3 uM measured by ChIP-seq analysis relative to control cells
[11] = biological target: T1, RNA polymerase II (Mus musculus) (UniProt P08775+Q8CFI7+P97760+A0A3Q4L2S8+Q80UW8+P61219+P62488+Q923G2+P60898+O08740+Q63871+P62876); assay: Inhibition of RNA polymerase II in mouse B16-F1 migrating cells assessed as fold change in Gtse1-RNA stability at 0.1 mM measured by ChIP-seq analysis relative to control cells
[12] = biological target: T1, RNA polymerase II (Mus musculus); assay: Inhibition of RNA polymerase II in mouse B16-F1 migrating cells assessed as fold change in Tbc1d7-RNA stability at 0.1 mM measured by ChIP-seq analysis relative to control cells
[13] = biological target: T1, RNA polymerase II (Mus musculus); assay: Inhibition of RNA polymerase II in mouse B16-F1 migrating cells assessed as fold change in Fndc10-RNA stability at 0.1 mM measured by ChIP-seq analysis relative to control cells
[14] = biological target: T1, RNA polymerase II (Mus musculus); assay: Inhibition of RNA polymerase II in mouse B16-F1 migrating cells assessed as fold change in Mrps18a-RNA stability at 0.1 mM measured by ChIP-seq analysis relative to control cells
[15] = biological target: T1, RNA polymerase II (Mus musculus); assay: Inhibition of RNA polymerase II in mouse B16-F1 migrating cells assessed as fold change in Mrpl20-RNA stability at 0.1 mM measured by ChIP-seq analysis relative to control cells
[16] = biological target: T1, RNA polymerase II (Mus musculus); assay: Inhibition of RNA polymerase II in mouse B16-F1 migrating cells assessed as fold change in Tpi1-RNA stability at 0.1 mM measured by ChIP-seq analysis relative to control cells
[17] = biological target: T1, RNA polymerase II (Mus musculus); assay: Inhibition of RNA polymerase II in mouse B16-F1 migrating cells assessed as fold change in Ube2v2-RNA stability at 0.1 mM measured by ChIP-seq analysis relative to control cells
[18] = biological target: T1, RNA polymerase II (Mus musculus); assay: Inhibition of RNA polymerase II in mouse B16-F1 migrating cells assessed as fold change in Polr2i-RNA stability at 0.1 mM measured by ChIP-seq analysis relative to control cells
[19] = biological target: T1, RNA polymerase II (Mus musculus); assay: Inhibition of RNA polymerase II in mouse B16-F1 migrating cells assessed as fold change in Rbm7-RNA stability at 0.1 mM measured by ChIP-seq analysis relative to control cells
[20] = biological target: T1, RNA polymerase II (Mus musculus); assay: Inhibition of RNA polymerase II in mouse B16-F1 migrating cells assessed as fold change in 1700003F12Rik-RNA stability at 0.1 mM measured by ChIP-seq analysis relative to control cells
[21] = biological target: T1, RNA polymerase II (Mus musculus); assay: Inhibition of RNA polymerase II in mouse B16-F1 migrating cells assessed as fold change in Vamp8-RNA stability at 0.1 mM measured by ChIP-seq analysis relative to control cells
[22] = biological target: T1, RNA polymerase II (Mus musculus); assay: Inhibition of RNA polymerase II in mouse B16-F1 migrating cells assessed as fold change in Ndufb7-RNA stability at 0.1 mM measured by ChIP-seq analysis relative to control cells
[23] = biological target: T1, RNA polymerase II (Mus musculus); assay: Inhibition of RNA polymerase II in mouse B16-F1 migrating cells assessed as fold change in Smim12-RNA stability at 0.1 mM measured by ChIP-seq analysis relative to control cells
[24] = biological target: T1, RNA polymerase II (Mus musculus); assay: Inhibition of RNA polymerase II in mouse B16-F1 migrating cells assessed as fold change in Ptov1-RNA stability at 0.1 mM measured by ChIP-seq analysis relative to control cells
[25] = biological target: T1, RNA polymerase II (Mus musculus); assay: Inhibition of RNA polymerase II in mouse B16-F1 migrating cells assessed as fold change in Lnpk-RNA stability at 0.1 mM measured by ChIP-seq analysis relative to control cells
[26] = biological target: T1, RNA polymerase II (Mus musculus); assay: Inhibition of RNA polymerase II in mouse B16-F1 migrating cells assessed as fold change in Prelid2-RNA stability at 0.1 mM measured by ChIP-seq analysis relative to control cells
[27] = biological target: T1, RNA polymerase II (Mus musculus); assay: Inhibition of RNA polymerase II in mouse B16-F1 migrating cells assessed as fold change in Ptbp3-RNA stability at 0.1 mM measured by ChIP-seq analysis relative to control cells
[28] = biological target: T1, RNA polymerase II (Mus musculus); assay: Inhibition of RNA polymerase II in mouse B16-F1 migrating cells assessed as fold change in Rrs1-RNA stability at 0.1 mM measured by ChIP-seq analysis relative to control cells
[29] = biological target: T1, RNA polymerase II (Mus musculus); assay: Inhibition of RNA polymerase II in mouse B16-F1 migrating cells assessed as fold change in Ppp4r2-RNA stability at 0.1 mM measured by ChIP-seq analysis relative to control cells
[30] = biological target: T1, RNA polymerase II (Mus musculus); assay: Inhibition of RNA polymerase II in mouse B16-F1 migrating cells assessed as fold change in Abhd12-RNA stability at 0.1 mM measured by ChIP-seq analysis relative to control cells

CCCc1cc(C)[nH]c(=O)c1CNC(=O)c1cc(-c2ccnc(N3CCN(C)CC3)c2)cc2c1cnn2C(C)C
log2FC [1]: 0.47 | log2FC [2]: -0.49 | log2FC [3]: 0.57 | log2FC [4]: 1.15 | log2FC [5]: -0.5 | log2FC [6]: 0.39 | log2FC [7]: -0.39 | log2FC [8]: 1.02 | log2FC [9]: -0.61 | log2FC [10]: -0.66

OC[C@H]1O[C@@H](n2cnc3cc(Cl)c(Cl)cc32)[C@H](O)[C@@H]1O
log2FC [11]: -0.8 | log2FC [12]: 0.54 | log2FC [13]: 0.69 | log2FC [14]: 0.43 | log2FC [15]: 0.43 | log2FC [16]: 0.8 | log2FC [17]: -0.68 | log2FC [18]: 0.52 | log2FC [19]: -0.49 | log2FC [20]: 0.87 | log2FC [21]: 0.54 | log2FC [22]: 0.6 | log2FC [23]: 0.6 | log2FC [24]: 0.38 | log2FC [25]: -0.65 | log2FC [26]: 0.81 | log2FC [27]: -0.79 | log2FC [28]: -0.45 | log2FC [29]: -0.52 | log2FC [30]: 0.49
